Measured values published in patent US20010049097A1 (priority 1999, published 2001).
Some of these results come from one statement about several compounds together.

Protein sequences, listed by entry. Tags and fused reporters are not part of them.
UniProt P00573, whole entry Y639F: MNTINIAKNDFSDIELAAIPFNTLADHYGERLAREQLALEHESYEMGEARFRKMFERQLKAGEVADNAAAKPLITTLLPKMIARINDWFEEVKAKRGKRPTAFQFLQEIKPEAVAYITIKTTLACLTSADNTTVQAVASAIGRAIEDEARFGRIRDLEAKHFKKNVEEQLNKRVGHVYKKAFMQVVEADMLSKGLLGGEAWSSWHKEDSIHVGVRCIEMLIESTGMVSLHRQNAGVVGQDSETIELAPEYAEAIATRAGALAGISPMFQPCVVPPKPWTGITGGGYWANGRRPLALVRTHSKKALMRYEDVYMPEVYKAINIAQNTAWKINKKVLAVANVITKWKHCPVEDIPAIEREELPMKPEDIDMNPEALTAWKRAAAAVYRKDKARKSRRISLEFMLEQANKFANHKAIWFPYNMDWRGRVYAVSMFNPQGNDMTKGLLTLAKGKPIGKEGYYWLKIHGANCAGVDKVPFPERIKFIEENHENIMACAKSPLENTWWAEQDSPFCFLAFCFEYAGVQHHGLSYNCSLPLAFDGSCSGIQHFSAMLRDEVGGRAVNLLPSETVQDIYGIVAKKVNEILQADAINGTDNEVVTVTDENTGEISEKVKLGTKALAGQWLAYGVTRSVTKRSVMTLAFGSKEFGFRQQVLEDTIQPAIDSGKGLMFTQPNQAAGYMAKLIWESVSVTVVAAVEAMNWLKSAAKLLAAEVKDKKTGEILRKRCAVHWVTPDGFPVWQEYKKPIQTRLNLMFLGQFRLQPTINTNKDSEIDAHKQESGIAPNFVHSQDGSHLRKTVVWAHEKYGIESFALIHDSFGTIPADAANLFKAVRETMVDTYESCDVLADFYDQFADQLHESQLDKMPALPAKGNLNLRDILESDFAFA

Biological target: T1, mutant T7 Y639F polymerase (Escherichia phage T7, UniProt P00573, Y639F)
T1 construct: made in house; host or cells: E. coli BL21 (protease-deficient strain), plasmid pDPT7
Format: biochemical, T7 bacteriophage
Details: reactions with 3 rNTPs and plasmid templates, at concentration optimum
Procedure: In general, transcription reaction mixtures comprised about 40 mM Tris-HCl or 40 mM Tris-Acetate pH 8.0, 5 mM DTT, 5-15 mM MgCl2, 0.1 mCi/ml of alpha-^32P GTP, and various combinations of rNTPs and dNTPs at initial concentrations of 0.5 mM and 1.0 mM, respectively. The reaction mixtures included supercoiled or PvuI-linearized pT75 DNA (10^−8 M) as the template and mutant T7 Y639F polymerase (10^−7 M). Reactions were typically conducted in 50 microliter reaction volumes and incubated at 37° C. Aliquots were removed after 5, 10, and 20 minutes of incubation and the reactions were quenched by adding a solution containing 95% formamide, 20 mM EDTA, 0.01% xylene cyanol. The reaction products were resolved by electrophoresis on denaturing gels containing 6% acrylamide, 0.6% bis-acrylamide, 6 M urea, 1×TBE. The gel was analyzed using a Molecular Dynamics Phosphorimager to determine the rates of incorporation of radioactive GTP into specific transcripts.
To evaluate the effect of A-form stabilizing compounds on polyamines on transcript extension by a mutant T7 RNAP, the activity of the RNAP was evaluated using standard transcription conditions (15 mM MgCl2, 40 mM Tris-HCl pH 8.0, 1 mM EDTA, and 5 mM DTT), or standard transcription reaction conditions plus varying concentrations of ethanol, methanol, trifuoro acteic acid, cobalt hexamine, spermine, or spermidine. […]

## NCCCCNCCCN [spermidine]
  increase in activity: ≤ 5 fold
